{"sequences": {"note": "Protein sequences, listed by entry. Tags and fused reporters are not part of them. Lines headed by an entry give the natural chain unless they say otherwise; changes in a name come on top.", "UniProt P51450": "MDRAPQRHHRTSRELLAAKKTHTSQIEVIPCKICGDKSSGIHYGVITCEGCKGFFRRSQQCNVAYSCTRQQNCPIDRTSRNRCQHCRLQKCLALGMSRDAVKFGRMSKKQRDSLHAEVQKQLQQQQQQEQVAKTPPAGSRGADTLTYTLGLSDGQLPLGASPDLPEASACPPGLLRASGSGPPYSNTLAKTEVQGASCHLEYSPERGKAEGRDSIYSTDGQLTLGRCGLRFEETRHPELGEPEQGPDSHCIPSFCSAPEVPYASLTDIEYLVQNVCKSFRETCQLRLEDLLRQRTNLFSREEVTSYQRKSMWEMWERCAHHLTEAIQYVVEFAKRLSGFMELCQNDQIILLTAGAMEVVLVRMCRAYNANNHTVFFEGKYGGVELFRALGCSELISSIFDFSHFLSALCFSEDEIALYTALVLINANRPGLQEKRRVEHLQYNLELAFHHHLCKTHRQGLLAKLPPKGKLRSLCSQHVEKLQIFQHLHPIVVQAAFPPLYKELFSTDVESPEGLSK"}, "source": "PubChem BioAssay AID2551", "about": "(National Center for Advancing Translational Sciences (NCATS), 2010)", "note": "The campaign covered roughly 310,000 compounds. About 17,000 (5.5%) were called active. Inconclusive means that the source gave no clear call. Such entries were picked first, then a sample of the others. The call rests on the fitted dose curve; in most records, active means well fitted inhibition curve with a large enough effect; inconclusive means small, poorly fitted or top-dose-only effect, or effect the other way; inactive means no such curve, though single readings can be large or run the other way. Where the call is inconclusive, the potency comes from a doubtful curve fit. On the % scale 0 is the no-effect control and ±100 the full control effect; potency means the concentration at half of the fitted maximal effect."}
{"target": "Nuclear receptor ROR-gamma (Mus musculus) (UniProt P51450)", "test": "qHTS for inhibitors of ROR gamma transcriptional activity; further: nearly all actives have a fitted effect of over 60% in size", "conditions": "Drosophila S2 Gal4-RORgamma UAS-luciferase reporter, 20 h; activity change, negative = inhibition: at 53.6 µM (top of the series)", "outline": "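A Gal4/UAS one-hybrid system in insect cells: metallothionein-promoter Gal4–ROR gamma fusion plus Photinus luciferase reporter. Copper sulfate 700 uM final, 20 hr ambient incubation, luminescent detection after 10 min with reagent.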"}
{"smiles": "O=c1[nH]c2ccccc2nc1Cc1ccc([N+](=O)[O-])cc1", "activity change, negative = inhibition": "inactive: 20.8%"}
{"smiles": "COc1ccccc1/C=C/C=N/NC(=O)c1ccco1", "Potency": "inconclusive: 35.5 µM [inhibitor, single point]"}
{"smiles": "COc1ccc(CNc2ccnc(-c3cccc(NS(C)(=O)=O)c3)n2)c(OC)c1", "activity change, negative = inhibition": "inactive: 25.3%"}
{"smiles": "Cc1ccc(CN2CCSc3ccc(C(=O)NCc4ccco4)cc32)cc1", "Potency": "inconclusive: 15.8 µM [activator, single point]"}
{"smiles": "Cc1ccc(/C=N/Nc2nc(C)cc(C)n2)cc1", "Potency": "active: 10 µM"}
{"smiles": "O=C(/C=C/c1ccc(F)cc1)NC(=S)Nc1ccccc1", "Potency": "active: 7.94 µM"}
{"smiles": "CCC(=O)Nc1ccc(NC(=O)c2cccc(OC)c2)nc1", "Potency": "inconclusive: 2.51 µM [activator, partial curve]"}
{"smiles": "COc1cccc(C(=O)Nc2ccc3c(c2)C(=O)c2ccccc2C3=O)c1", "Potency": "inconclusive: 35.5 µM [inhibitor, single point]"}
{"smiles": "CCOc1ccc(S(=O)(=O)Nc2ccc(O)c(Sc3ncn[nH]3)c2)cc1", "Potency": "inconclusive: 5.62 µM [activator, full curve]"}
{"smiles": "COC(=O)c1cc(NC(=O)CN2C(=O)CSC2=O)ccc1Cl", "Potency": "inconclusive: 17.8 µM [activator, single point]"}
{"smiles": "NC(=O)CC(NC(=O)c1ccccc1)c1ccc(N2CCN(c3ccccc3)CC2)c([N+](=O)[O-])c1", "note": "(configuration not stated)", "Potency": "inconclusive: 14.1 µM [activator, partial curve]"}
{"smiles": "O=C(CC1SC(=Nc2ccccc2)N(Cc2ccccn2)C1=O)Nc1ccc(Br)cc1", "note": "(configuration not stated)", "Potency": "inconclusive: 14.1 µM [activator, partial curve]"}
{"smiles": "CN(C)S(=O)(=O)c1cccc(NC(=O)c2cc3ccccc3o2)c1", "Potency": "inconclusive: 10 µM [activator, partial curve]"}
{"smiles": "Cc1c(C(=O)Nc2ccncc2)sc2nc(-c3ccc(F)cc3)cn12", "Potency": "inconclusive: 2.51 µM [inhibitor, partial curve, poor fit]"}
{"smiles": "O=C(NCC1CCCO1)c1ccc(COc2ccc(Cl)cc2)cc1", "note": "(configuration not stated)", "Potency": "inconclusive: 5.01 µM [activator, partial curve]"}
{"smiles": "CC1(C)CC(=O)C(c2c[nH]c3ccccc23)C(=O)C1", "activity change, negative = inhibition": "inactive: -24.8%"}
{"smiles": "O=C(Nc1cccc(-c2cn3c(n2)SCC3)c1)c1ccc2ccccc2n1", "Potency": "inconclusive: 35.5 µM [inhibitor, single point]"}
{"smiles": "CCOc1cc(C(=S)N2CCCC2)ccc1OC(=O)Cc1ccc(F)cc1", "Potency": "inconclusive: 6.31 µM [inhibitor, single point]"}
{"smiles": "CN1CCC(OC(=O)COc2ccc(F)cc2)CC1", "activity change, negative = inhibition": "inactive: 20.6%"}
{"smiles": "Cc1cccc(NC(=S)NCc2cccn2C)c1", "Potency": "inconclusive: 2.82 µM [inhibitor, single point]"}
{"smiles": "Cc1ccc(COc2ccc(/C=N/NC(=O)c3nnn(-c4nonc4N)c3COc3ccc(F)cc3)cc2)cc1", "Potency": "inconclusive: 6.31 µM [inhibitor, single point]"}
{"smiles": "Cc1onc(-c2ccccc2Cl)c1C(=O)N1CCN(C/C=C/c2ccccc2)CC1", "Potency": "inconclusive: 12.6 µM [activator, single point]"}
{"smiles": "CCOc1ccc(N2C(=O)CC(N)C2=O)cc1", "note": "(configuration not stated)", "Potency": "active: 1.12 µM"}
{"smiles": "COC(=O)Cc1ccc(NC(=S)N2CCN(c3cc(Cl)ccc3C)CC2)cc1", "Potency": "active: 12.6 µM"}
{"smiles": "O=C(NC1=NCCS1)Nc1ccccc1", "Potency": "inconclusive: 35.5 µM [inhibitor, single point]"}
{"smiles": "CCOc1ccc(OCCSc2nnnn2-c2ccccc2)cc1", "Potency": "inconclusive: 35.5 µM [activator, single point]"}
{"smiles": "O=C(CCCc1nc(-c2ccccc2Cl)no1)NC1CCCC1", "Potency": "active: 8.91 µM"}
{"smiles": "CC1Cc2nc(SCC(=O)Nc3ccc(F)cc3)n(C)c(=O)c2S1", "note": "(configuration not stated)", "Potency": "inconclusive: 35.5 µM [activator, single point]"}
{"smiles": "O=C(Oc1cccc(NC(=O)c2ccco2)c1)c1cccc(S(=O)(=O)N2CCCC2)c1", "Potency": "inconclusive: 12.6 µM [activator, partial curve, poor fit]"}
{"smiles": "CCOC(=O)Cn1nc(/C=C/c2ccc(C(C)C)cc2)ccc1=O", "Potency": "inconclusive: 11.2 µM [activator, partial curve]"}
{"smiles": "COc1ccc(CC2=C(O)c3ccccc3C(=O)C2=O)cc1", "Potency": "inconclusive: 15.8 µM [activator, partial curve]"}
{"smiles": "Cc1snc(S(=O)(=O)/C(C#N)=N\\Nc2ccccc2)c1C#N", "Potency": "inconclusive: 35.5 µM [inhibitor, single point]"}
{"smiles": "O=C(c1ccc2nc[nH]c2c1)N1CCN(c2cccc(C(F)(F)F)c2)CC1", "Potency": "inconclusive: 35.5 µM [activator, single point]"}
{"smiles": "COc1ccc2c(c1)CC/C(=C\\C=C\\c1ccccc1OC)C2=O", "Potency": "inconclusive: 1.12 µM [activator, partial curve]"}
{"smiles": "COc1cc(SC)ccc1C(=O)NCCCOC(C)C", "Potency": "inconclusive: 20 µM [activator, single point]"}
{"smiles": "CC(=O)Nc1ccc(OCCOc2ccc(/C=C3/C(=N)N4C=CSC4=NC3=O)cc2)cc1", "Potency": "inconclusive: 31.6 µM [inhibitor, single point]"}
{"smiles": "O=S(=O)(c1ccccc1)c1nc(NC2CC2)sc1Cl", "Potency": "inconclusive: 35.5 µM [activator, single point]"}
{"smiles": "C=CCn1c(-c2sc(-c3ccccc3)nc2C)n[nH]c1=S", "Potency": "active: 2.51 µM"}
{"smiles": "CCNc1nc(NCc2ccccc2)nc(SCC(=O)Nc2ccccc2)n1", "Potency": "inconclusive: 14.1 µM [activator, partial curve, poor fit]"}
{"smiles": "COc1ccc(/C=N/NC(=O)c2ccc(NC(=O)c3cccc([N+](=O)[O-])c3)cc2)c(OC)c1", "activity change, negative = inhibition": "inactive: -20.1%"}
{"smiles": "COc1cccc(N=Cc2ccc(O)cc2O)c1", "Potency": "inconclusive: 0.112 µM [activator, single point]"}
{"smiles": "O=C(/C=C/NNC(=O)c1ccccc1O)c1ccccc1", "Potency": "inconclusive: 35.5 µM [inhibitor, single point]"}
{"smiles": "S=c1[nH]c2cc(Cl)c3cccnc3c2o1", "Potency": "inconclusive: 35.5 µM [inhibitor, single point]"}
{"smiles": "CC1(C)CC(C)(c2ccc(O)cc2O)N(c2cccc(Cl)c2)C(=S)N1", "note": "(configuration not stated)", "Potency": "inconclusive: 14.1 µM [inhibitor, single point]"}
{"smiles": "COc1ccc(/C=N/Nc2ncnc3scc(-c4ccccc4)c23)cc1OC", "Potency": "active: 3.55 µM"}
{"smiles": "CCCCOc1ccc2c(c1)C(=O)c1cc(O)ccc1-2", "Potency": "active: 8.91 µM"}
{"smiles": "CCOC(=O)CNc1nnc(SCC(=O)OCC)[nH]c1=O", "activity change, negative = inhibition": "inactive: -11.8%"}
{"smiles": "COc1ccc(CNC(=O)CN(c2ccc(OC)c(Cl)c2)S(=O)(=O)c2ccc(C)cc2)cc1", "activity change, negative = inhibition": "inactive: -9.62%"}
{"smiles": "O=C(CN1C2CCCC1CC(NC(=O)c1ccccc1)C2)Nc1ccccc1C(F)(F)F", "note": "(configuration not stated)", "Potency": "inconclusive: 35.5 µM [activator, single point]"}
{"smiles": "Cc1ccnn1CC(=O)N/N=C/c1ccc([N+](=O)[O-])s1", "activity change, negative = inhibition": "inactive: -0.828%"}
{"smiles": "COc1ccc(C(O)Cn2ccsc2=NC(C)=O)cc1", "note": "(configuration not stated)", "activity change, negative = inhibition": "inactive: -19.7%"}
{"smiles": "CCOc1cc2[nH]c(=S)n(C3CC3)c(=O)c2cc1OCC", "Potency": "active: 4.47 µM"}
{"smiles": "c1ccc(-c2cn3nc(-c4ccccc4)c(-c4ccccc4)nc3n2)cc1", "Potency": "active: 22.4 µM"}
{"smiles": "Nc1ccc2oc(-c3ccc4nc[nH]c4c3)nc2c1", "Potency": "inconclusive: 35.5 µM [inhibitor, single point]"}
{"smiles": "Cc1cccc(C(=O)NCCc2n[nH]c(=S)n2C)c1", "Potency": "inconclusive: 20 µM [inhibitor, single point]"}
{"smiles": "COc1ccc(Oc2c(C)oc3c(CN4CCOCC4)c(O)ccc3c2=O)cc1", "activity change, negative = inhibition": "inactive: 16.7%"}
{"smiles": "COc1cc(OC)c(OC)cc1/C=C1\\CCC(C2CCCC2)C1=O", "note": "(configuration not stated)", "activity change, negative = inhibition": "inactive: 19.8%"}
{"smiles": "Cc1ccc(-c2nc3nc4ccccc4nc3n2Cc2ccco2)cc1", "Potency": "inconclusive: 22.4 µM [inhibitor, single point]"}
{"smiles": "N#Cc1cccc(-c2ccc3ncnc(NCCN4CCOCC4)c3c2)c1", "activity change, negative = inhibition": "inactive: 30.5%"}
{"smiles": "Cn1c(=O)[nH]c(=O)c2c1nc(N1CCCCC1)n2CCCSc1nc2ccccc2s1", "Potency": "inconclusive: 12.6 µM [activator, partial curve, poor fit]"}
{"smiles": "C#CCSc1nnc(-c2sc3ccccc3c2Cl)o1", "Potency": "inconclusive: 11.2 µM [inhibitor, single point]"}
{"smiles": "CC(=O)Nc1cc2c(cc1NC(=O)Cn1nc(-c3ccc(F)cc3)ccc1=O)OCCO2", "Potency": "inconclusive: 35.5 µM [inhibitor, single point]"}
{"smiles": "CC(NC(=O)C1CCN(S(=O)(=O)c2cccc3nonc23)CC1)c1ccccc1", "note": "(configuration not stated)", "activity change, negative = inhibition": "inactive: 38.1%"}
{"smiles": "CC(C)CC(COCc1cccc(Cl)c1)N1CCN(C(=O)c2ccc(C(F)(F)F)cc2)CCC1=O", "note": "(configuration not stated)", "Potency": "inconclusive: 35.5 µM [inhibitor, single point]"}
{"smiles": "Cc1cc(C)nc(/N=C(/NC(=O)Nc2cccc(Cl)c2)Nc2ccccc2)n1", "activity change, negative = inhibition": "inactive: 14.2%"}
{"smiles": "Cc1ccc(Nc2c(N)c(=O)oc3ccccc23)cc1", "Potency": "inconclusive: 35.5 µM [activator, partial curve, poor fit]"}
{"smiles": "CCn1cc(Br)c(C(=O)Nc2ccc(Cl)c(Cl)c2)n1", "Potency": "inconclusive: 35.5 µM [activator, single point]"}
{"smiles": "Cc1cccn2c(=O)c3cc(C(=O)NCCN4CCOCC4)c(=N)n(Cc4ccc(F)cc4)c3nc12", "Potency": "inconclusive: 35.5 µM [inhibitor, single point]"}
{"smiles": "Cc1cccc(NC(=O)CCS(=O)(=O)c2ccc(Br)cc2)c1", "activity change, negative = inhibition": "inactive: 5.93%"}
{"smiles": "O=C(N/N=C\\C=C\\c1ccc([N+](=O)[O-])o1)c1cccs1", "Potency": "active: 7.94 µM"}
{"smiles": "Cc1ccccc1OCc1n[nH]c(=S)n1-c1ccccc1", "Potency": "active: 2.51 µM"}
{"smiles": "CN(c1ccccc1)S(=O)(=O)c1ccc(C(=O)NCc2ccccn2)cc1", "Potency": "inconclusive: 35.5 µM [inhibitor, single point]"}
